Data published in ChEMBL document CHEMBL5252635, “The Mycobacterium tuberculosis mycothiol S-transferase is divalent metal-dependent for mycothiol binding and transfer” (2023).
≈ marks a conversion by molar mass, not a printed value.

How the values were obtained:
[1] = test system: Mycobacterium tuberculosis; assay: Antibacterial activity against wild type Mycobacterium tuberculosis CDC1551 incubated for 10 days by resazurin dye based microtiter plate assay; assay type: functional; settings: CDC1551, 240 h, time 10 day
Summary of the method: (§1)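 MIC in 7H9-ADC-Tween 80 medium. Strains (CDC1551 WT, rv0443 KO) grown to mid-log (OD600 ~0.8), diluted to OD600 0.01, exposed to serial antibiotic dilutions for 10 days at 37 °C; MIC read by resazurin blue test.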

[2] = test system: Mycobacterium tuberculosis; assay: Antibacterial activity against Mycobacterium tuberculosis rv0443 knockout strain incubated for 10 days by resazurin dye based microtiter plate assay; assay type: functional; settings: rv0443, 240 h, time 10 day; summary of the method: as §1

Work on `NNC(=O)c1ccncc1` [ISONIAZID] yielded an MIC [1] of 0.02 µg/mL (≈ 0.146 µM) and an MIC [2] of 0.02 µg/mL (≈ 0.146 µM).
